Measured values from paper PMC8754647, “A minimal motif for sequence recognition by mitochondrial transcription factor A (TFAM)”.
For some assays here: Weaker means in comparison with the reference protein, sequence or condition of that experiment. Tags and fusion partners may be left off the protein sequences shown. For some assays here: The exact form of at least one protein or probe is not confirmed.

Columns and labels:
TFAM [1] = molecular target: T1, TFAM (UniProt Q00059); assay: EMSA; details: 500 mM NaCl, apparent Kd; EMSA: 10 mM HEPES pH 8.0, 500 mM NaCl, 2 mM DTT, 130 ug/ml BSA, 5% glycerol, 100 nM DNA, 30 min on ice then 10 min RT; recombinant protein; protein details: His-MBP N-terminal, removed by TEV; label: 5'-Cy3 on strand 1 (EMSA), 6-FAM (FP)
T1 sequence (looked up, limits assumed): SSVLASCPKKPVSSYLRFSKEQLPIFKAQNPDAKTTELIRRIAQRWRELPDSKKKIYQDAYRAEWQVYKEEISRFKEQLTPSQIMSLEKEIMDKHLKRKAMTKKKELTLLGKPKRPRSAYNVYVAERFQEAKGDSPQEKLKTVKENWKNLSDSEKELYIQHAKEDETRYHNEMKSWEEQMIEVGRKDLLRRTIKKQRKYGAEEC

TFAM [2] = molecular target: T1, TFAM; assay: EcoRI cleavage protection; details: 10 mM MgCl2, 50 mM NaCl, less protection than DNA2GG at low TFAM/DNA, mostly protected at high ratio; EcoRI protection: 10 mM Tris-HCl pH 7.9, 10 mM MgCl2, 50 mM NaCl, 100 ug/ml BSA, 100 nM DNA, 30 min on ice then EcoRI 15 min 37 C; recombinant protein; protein details: His-MBP N-terminal, removed by TEV

Row | Sequence | Kd (TFAM [1]) [nM] | binding result (TFAM [2])
1 | AAAAAGAATCATTTGGATATATAGGTAT (double strand) [DNAAA] | 162 | 
2 | CTGAAGCCAGTTACCTTTGAAAAAAGAGTTGGTAGCTCTTGATCTAGGAATTCAATCACCGCTGGTAGCGGTGGTTTTTTTATTTGCAAGCAGCAGATTA (double strand) [DNA2AA] |  | binds more weakly
